The experiment is described as follows: qHTS Assay for Lipid Storage Modulators in Drosophila S3 Cells.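 For cell number change: cells counted by Cell Tracker Red CMTPX staining in the red channel.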 As to conditions: BODIPY lipid droplet fluorescence, 18-24 h; for cell number change: measured here: cell count max response, cells fed with added oleic acid. In outline:
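Drosophila S3 cells got compounds at several concentrations plus oleic acid (400 uM solution). Laser-scanning cytometry with 488 nm excitation read lipid droplets at 500-530 nm and cells at 575-640 nm. Percent activity was relative to 20 uM Triacsin C.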
On the technique in general: qHTS replaces the single test concentration by a dilution series.

The mark [1] stands for this setting: measured here: lipid fluorescence (Fed channel) AC50, cells fed with added oleic acid.
Setting [2] is: measured here: cell number channel AC50, cells fed with added oleic acid.

The AC50 is the midpoint of the concentration-response curve, whichever way the signal moves.

Structures are written as SMILES. Some of the results follow. Shown are side measurements of this screen, not its main read-out; they come without a call. Compounds called inactive in the main read-out are mostly missing here. Words in brackets tell the shape of the fitted curve; partial curves, single points and poor fits give uncertain potencies.

`Cc1c(C(=O)NCc2ccccn2)oc2ccc(S(=O)(=O)N3CCOCC3)cc12`: the cell number change was 4.22%. Further, the half-maximal activity concentration (AC50) under setting [1] is 6.51 µM [rising, full curve].

On to `Cc1ccc(/C=C/S(=O)(=O)NCC(=O)OCC(=O)NCc2ccccc2)cc1`, for which the cell number change was 10.4%. For the molecule `COc1ccc(N2CCN(C(=O)COC(=O)c3ccc(OC(F)F)cc3)CC2)cc1`, the cell number change was -12.1%. The half-maximal activity concentration (AC50) under setting [1] is 0.731 µM [falling, full curve, poor fit]. Consider `Cc1ccc(S(=O)(=O)NCc2ccc(C(=O)NCCCN3CCN(C)CC3)cc2)cc1`, for which the cell number change was 4.16%. Further, the AC50 under setting [1] was 0.326 µM [falling, full curve]. As to `Cc1cc(C)c(S(=O)(=O)NC2CC(C)(C)NC(C)(C)C2)cc1Br`, the cell number change worked out at 17.5%. Besides, the AC50 under setting [2] was 0.146 µM [rising, full curve, poor fit]. As to `O=C(NCC(c1ccc(F)cc1)N1CCOCC1)c1cccc(Br)c1` (stereo not given), the cell number change was found to be 8.61%. With `C=CCn1cnc2c(c1=O)c1nc3ccccc3nc1n2-c1ccccc1`, the AC50 under setting [1] is 0.0206 µM [rising, full curve, poor fit]. On to `CC(C)(C)c1ccc(NC(=O)COC(=O)C2=COCCO2)cc1`, for which the cell number change turned out to be 17%. Further, the AC50 under setting [1] is 0.00461 µM [rising, full curve, poor fit]. Take `Cc1cc(OC(=O)c2c(Cl)cc(Cl)cc2Cl)nc(C)n1`: the cell number change is -21.9%. As to `O=C1NCCN(Cc2cccc(Oc3ccccc3)c2)C1CC(=O)N1CCCCC1` (stereo not given), the cell number change was -12.9%. On to `CCCCn1c(N)c(N(CC(C)C)C(=O)CSc2ccc([N+](=O)[O-])cc2)c(=O)[nH]c1=O`, for which the cell number change is -100%. Moreover, the AC50 under setting [2] is 29.1 µM [falling, single point]. Also, the AC50 under setting [1] was 0.291 µM [falling, single point]. On to `Cc1cccc2cc(CN(Cc3ccco3)C(=O)NC3CCCCC3)c(=O)[nH]c12`, for which the half-maximal activity concentration (AC50) was 0.731 µM [rising, single point] under setting [2] and 0.651 µM [rising, partial curve, poor fit] under setting [1]. With `Cc1ccc2nc(NC(=O)CSc3nc4ccccc4o3)sc2c1`, the cell number change is 17%. Further, the AC50 under setting [1] was 6.51 µM [rising, single point].

Regarding `CC(=O)c1ccc(NC(=O)c2ccc(C)c(S(=O)(=O)N3CCOCC3)c2)cc1`, the cell number change is 12.9%. Under setting [1], the AC50 is 0.58 µM [rising, single point]. In the case of `CC1(C)Cc2c(sc(NC(=O)c3ccc4ncsc4c3)c2C(N)=O)C(C)(C)N1`, the cell number change came out at 12.3%. Moreover, the half-maximal activity concentration (AC50) under setting [1] was 0.103 µM [rising, full curve, poor fit].

As for `CCOC(=O)CSC1=NC(=O)/C(=C\c2ccc(OC(C)=O)cc2)S1`, under setting [2], the AC50 was 0.731 µM [rising, single point]. With `O=C(Cn1ccc2ccccc21)Nc1ccc2c(c1)OCO2`, the cell number change was -7.64%. The AC50 under setting [2] is 0.0411 µM [falling, single point]. Consider `Nc1n[nH]c(-c2ccccc2[N+](=O)[O-])n1`, for which the cell number change was -24.8%. Moreover, the AC50 under setting [1] is 6.51 µM [rising, partial curve, poor fit].

Turning to `O=C1CCC(C(=O)N2CCSCC2)CN1Cc1cccc(C(F)(F)F)c1` (stereo not given), the cell number change came to 30.3%. In addition, the half-maximal activity concentration (AC50) under setting [2] is 16.4 µM [rising, partial curve, poor fit]. In addition, the AC50 under setting [1] was 16.4 µM [rising, partial curve]. Turning to `CCN(C(=O)CN1CCc2ccccc21)c1c(N)n(Cc2ccccc2)c(=O)[nH]c1=O`, the cell number change is -31.3%. Also, the AC50 under setting [2] was 8.2 µM [falling, partial curve, poor fit]. For the same molecule, the AC50 under setting [1] was 7.31 µM [falling, partial curve]. For `C/C(=N\OCC(=O)OCC(=O)NC(=O)c1ccc(OC(F)F)cc1)c1ccc2c(c1)OCO2`, the cell number change is -57.8%. Besides, under setting [2], the half-maximal activity concentration (AC50) was 23.1 µM [falling, single point]. Regarding `Cc1ccc(C(C)NC(=S)NC2CCCCC2)c(C)c1` (stereo not given), the cell number change is 5.39%. Further, the AC50 under setting [1] was 0.651 µM [rising, partial curve, poor fit]. Take `CC(C)CC(=O)Nc1ncc([N+](=O)[O-])s1`: the cell number change was -38.8%. Further, the half-maximal activity concentration (AC50) under setting [2] was 7.31 µM [falling, full curve]. Further, under setting [1], the AC50 is 16.4 µM [falling, single point]. `O=C(NCC1CCS(=O)(=O)C1)NCC1CCS(=O)(=O)C1` (stereo not given): the cell number change stood at 2.44%. For the same molecule, the AC50 under setting [1] is 0.00517 µM [falling, full curve, poor fit]. With `CCCCN(C(=O)CSCC(=O)Nc1ccc(C)cc1)c1c(N)n(CCCC)c(=O)[nH]c1=O`, the cell number change came to 13.8%. For the same molecule, under setting [1], the AC50 was 0.517 µM [rising, full curve, poor fit].

With `CC(NC(=O)C1CCN(S(=O)(=O)c2ccc(Br)s2)CC1)c1ccccc1` (stereo not given), the cell number change is 43.7%. For the same molecule, under setting [2], the AC50 is 29.1 µM [rising, single point]. As for `Cc1cccc(NC(=O)CSc2nnc(-c3ccc(S(=O)(=O)N4CCCC4)cc3)o2)c1`, under setting [2], the half-maximal activity concentration (AC50) was 2.91 µM [rising, partial curve]. For `Cc1nnc(SCC(=O)N2CCN(S(=O)(=O)c3ccccc3)CC2)[nH]c1=O`, the cell number change is -91.9%. Moreover, under setting [1], the AC50 was 29.1 µM [falling, single point]. For the molecule `COC(=O)c1sccc1NC(=O)c1ccccc1`, the cell number change is 22.1%. The AC50 under setting [2] was 0.0291 µM [rising, full curve, poor fit]. In addition, the AC50 under setting [1] was 5.8 µM [rising, full curve, poor fit]. Take `Cc1[nH]n2c(=O)cc(C(C)C)nc2c1-c1ccccc1`: the cell number change was found to be 8.91%. Moreover, under setting [1], the AC50 is 14.6 µM [rising, single point]. With `CN(Cc1ccccc1)c1nc2c(c(=O)[nH]c(=O)n2C)n1CCCSc1ncccn1`, the cell number change was -20.8%. The half-maximal activity concentration (AC50) under setting [1] is 1.16 µM [rising, partial curve].

In the case of `N/C(=N\OC(=O)Cc1ccccc1[N+](=O)[O-])c1ccccn1`, the cell number change was 11.4%. For the same molecule, the AC50 under setting [1] is 6.51 µM [falling, partial curve, poor fit]. For the molecule `CN(C(=O)CC1C(=O)NCCN1Cc1ccccc1F)C1CCOCC1` (stereo not given), the cell number change was -16.1%. Further, the AC50 under setting [1] was 2.24 µM [falling, full curve]. With `COc1ccc(-c2[nH]ncc2/C=N\NS(=O)(=O)c2ccc(Cl)cc2)cc1`, the cell number change is -16.6%. The AC50 under setting [1] was 0.731 µM [rising, full curve]. On to `NC(=O)[C@H]1CC2(CC(c3cccc(NC(=O)COc4ccc(Cl)cc4)c3)=NO2)CN1C(=O)c1ccccc1C(=O)c1ccccc1` (stereo not given in full), for which the cell number change is -50.5%. For the same molecule, the AC50 under setting [2] is 11.6 µM [falling, partial curve]. The AC50 under setting [1] is 13 µM [falling, partial curve].

Take `Cc1[nH]c2ccc(C(=O)OCC(=O)NC3(C#N)CCCCC3)cc2c1C`: the cell number change is -38.6%. For the same molecule, under setting [2], the AC50 is 11.6 µM [falling, partial curve, poor fit].

For `COC(=O)c1c(NS(=O)(=O)c2cccs2)sc2c1CCCC2`, under setting [1], the AC50 was 4.11 µM [rising, single point]. Regarding `CCOc1ccccc1NC(=O)Nn1cnnc1`, the cell number change was -4.18%. Consider `CNc1ncc(Cc2ccccc2)s1`, for which the cell number change is -18.9%. Moreover, under setting [1], the AC50 was 23.1 µM [falling, partial curve].

Consider `COc1ccccc1CNC(=O)COC(=O)/C=C/c1cccs1`, for which the cell number change is -2.35%.

Turning to `O=C(N/N=C/c1ccccc1)c1ccco1`, the cell number change is -13.4%. For the molecule `COc1cc(OC)nc(NC(=O)CSc2nc3ccccc3o2)n1`, the AC50 by setting is: under setting [2], 6.51 µM [rising, single point]; under setting [1], 6.51 µM [rising, single point]. As to `Fc1ccccc1Cn1nnc2c(-n3ccnc3)ncnc21`, the cell number change stood at 104%. Moreover, the AC50 under setting [2] is 29.1 µM [rising, single point]. Besides, under setting [1], the AC50 was 29.1 µM [rising, single point]. On to `O=c1[nH]c(=O)c2nnc(N/N=C/c3ccccc3F)nc2[nH]1`, for which the cell number change is -19.3%. Under setting [1], the half-maximal activity concentration (AC50) is 0.13 µM [falling, full curve, poor fit]. `Cc1ccc(NC2=CC(=O)C(=O)c3ccccc32)cc1`: the cell number change is -73.7%. For the same molecule, the AC50 under setting [2] is 20.6 µM [falling, single point]. In addition, under setting [1], the AC50 was 16.4 µM [falling, single point]. Consider `CC(=O)NC(Cc1c[nH]c2ccccc12)C(=O)OCC(=O)Nc1cc(C)on1` (stereo not given), for which, under setting [2], the AC50 was 5.8 µM [rising, single point].

`O=c1cc(-c2ccccc2Cl)oc2cc(O)cc(O)c12`: the cell number change amounted to 15.3%. Further, the AC50 under setting [1] is 0.731 µM [rising, full curve, poor fit]. As for `O=C(NCc1ccco1)C1CCCN1C(=O)Nc1ccccc1[N+](=O)[O-]` (stereo not given), the cell number change came to 16.1%. Besides, the AC50 under setting [1] was 6.51 µM [rising, single point]. On to `O=C(CN1CCC(O)(c2ccccc2)CC1)Nc1ccc2c(c1)OCCO2`, for which the cell number change turned out to be 35%. Under setting [1], the AC50 was 18.4 µM [rising, single point]. Take `COc1ccc(C(=O)CCC(=O)Nc2ccc(N3CCCCC3)cc2)cc1OC`: the cell number change was 2.7%. Under setting [1], the AC50 was 29.1 µM [falling, single point]. With `CS(=O)(=O)c1sc(C#N)c2c1C(=O)CC(c1ccccc1)C2` (stereo not given), the cell number change was -62.9%. For the same molecule, the AC50 under setting [2] is 11.6 µM [falling, partial curve]. Also, under setting [1], the half-maximal activity concentration (AC50) was 13 µM [falling, partial curve]. With `CN(C(=O)CN1C(=O)NC(c2ccccc2)(c2ccccc2)C1=O)C1CCS(=O)(=O)C1` (stereo not given), the AC50 under setting [1] is 2.59 µM [rising, full curve]. Take `FC(F)(F)c1cccc(CN2CCSCC2)c1`: the cell number change amounted to 17.1%. Also, the half-maximal activity concentration (AC50) under setting [1] was 32.6 µM [rising, single point]. For `Fc1ccc(/C=N/N2CCCCC2)c(F)c1`, the cell number change came to 6.52%. Also, the half-maximal activity concentration (AC50) under setting [1] was 0.58 µM [rising, full curve, poor fit]. As for `CC1Cc2ccccc2N1C(=O)CN(C)CC(=O)Nc1ccc(F)cc1` (stereo not given), the cell number change stood at 1.27%. Also, the AC50 under setting [1] is 18.4 µM [rising, single point]. On to `Cc1nn(Cc2ccc(Cl)cc2)c(C)c1NC(=O)c1cc(C(C)C)on1`, for which the cell number change worked out at 14.6%. Besides, the AC50 under setting [1] was 0.00461 µM [rising, full curve, poor fit]. For `CCCOc1cccc(OCC(=O)Nc2nc3ccccc3[nH]2)c1`, the cell number change was -5.1%. Also, the AC50 under setting [1] is 5.8 µM [rising, partial curve]. In the case of `CCOc1ccc(C2Nc3ccc4ccccc4c3-c3c2c(=O)oc2ccccc32)cc1` (stereo not given), the half-maximal activity concentration (AC50) is 0.731 µM [rising, partial curve] under setting [2] and 2.06 µM [rising, partial curve] under setting [1]. For `CN(C)C1=NC[C@H](Cc2ccccc2)N1CCCC1CCCC1`, the cell number change stood at 33.2%. In addition, the AC50 under setting [2] was 29.1 µM [rising, single point]. For the same molecule, the half-maximal activity concentration (AC50) under setting [1] is 23.1 µM [rising, single point].

The values are drawn from PubChem BioAssay AID2685 (National Center for Advancing Translational Sciences (NCATS), 2010).
